# Data published in PubChem BioAssay (NCATS).
# By UniProt entry, the sequences of proteins in these tests, tags left out. Where a name states a change or a piece, a line headed by the entry shows the natural chain unless it says otherwise.
# UniProt Q14994: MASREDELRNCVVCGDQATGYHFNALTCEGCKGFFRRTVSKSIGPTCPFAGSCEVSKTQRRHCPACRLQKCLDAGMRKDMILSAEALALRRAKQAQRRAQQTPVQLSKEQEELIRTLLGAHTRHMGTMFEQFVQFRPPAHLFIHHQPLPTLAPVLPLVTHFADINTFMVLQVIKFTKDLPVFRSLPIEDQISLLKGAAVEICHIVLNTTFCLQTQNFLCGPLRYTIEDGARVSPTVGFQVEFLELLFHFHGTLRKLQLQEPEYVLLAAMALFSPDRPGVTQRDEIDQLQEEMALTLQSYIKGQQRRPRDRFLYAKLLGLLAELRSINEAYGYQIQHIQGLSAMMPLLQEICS
# Inconclusive means that the source gave no clear call. Such entries were picked first, then a sample of the others. For some of these results: Where the call is inconclusive, the potency comes from a doubtful curve fit. Activity calls are given as the source filed them. Calls follow the shape of the dose curve; as a rule, active = well fitted curve in the direction sought with a large enough effect; inconclusive = small, poorly fitted or top-dose-only effect, or another doubt; inactive = no such curve, though single readings can be large; an effect the other way counts as inactive or inconclusive.
# Columns and labels:
# [1] = Panc-1005 Cancer Cell Toxicity qHTS against the NCATS CANVASS Library (AID 1347349); also: nearly all actives have a fitted effect of over 60% in size; also: potency is read from the fitted curve at half-maximal effect
# Method in brief: (§1)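 Following a 4 h pre-incubation of 1000 seeded cells, compounds were pinned in an 11-pnt dilution series and left for 72 h; viability then came from CellTiter-Glo.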
# [2] = UWB1.289-WTBRCA1 Cancer Cell Toxicity qHTS against the NCATS CANVASS Library (AID 1347354); also: potency is read from the fitted curve at half-maximal effect
# Method in brief: (§2)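 Luminescent ATP read-out (CellTiter-Glo, 15min at room temperature) measures survival after cells face an 11-point compound series for 72 hours at 37 degrees C/5% CO2.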
# [3] = HEK-293 Cancer Cell Toxicity qHTS against the NCATS CANVASS Library (AID 1347355); also: nearly all actives have a fitted effect of over 65% in size; also: potency is read from the fitted curve at half-maximal effect
# Method in brief: as §2
# [4] = HPAF-II 24hr Apoptosis Induction qHTS against the NCATS CANVASS Library (AID 1347356)
# Method in brief: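 Luminescent caspase-3/7 signal (DEVD substrate, Caspase-Glo) served as read-out, taken 15 min after reagent addition to HPAF-II cells exposed 24 h to compounds.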
# [5] = HEK293 18hr Apoptosis Induction qHTS against the NCATS CANVASS Library (AID 1347357); also: potency is read from the fitted curve at half-maximal effect
# Method in brief: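 Natural products applied to HEK293 for 18 hr; Caspase-Glo 3/7 readout.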
# [6] = HPAF-II 12hr Apoptosis Induction qHTS against the NCATS CANVASS Library (AID 1347358); also: potency is read from the fitted curve at half-maximal effect
# Method in brief: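 500 HPAF-II cells/well; cmpds 11-pt; 12 hr, 37 degrees C/5% CO2; Caspase-Glo 3/7 added, 15 min RT dark; luminescence read. Doxorubicin titration as control.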
# [7] = HPAF-II 18hr Apoptosis Induction qHTS against the NCATS CANVASS Library (AID 1347360); also: potency is read from the fitted curve at half-maximal effect
# Method in brief: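 Luminescent DEVD-substrate signal, proportional to caspase activity, is measured in HPAF-II cells after 18-hour treatment across a concentration series; doxorubicin serves as control.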
# [8] = KB-3-1 Cancer Cell Toxicity qHTS against the NCATS CANVASS Library (AID 1347366); also: nearly all actives have a fitted effect of over 75% in size; also: potency is read from the fitted curve at half-maximal effect
# Method in brief: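 Cytotoxicity toward KB-3-1 cells (500/well, DMEM + 10% FBS) was scored by CellTiter-Glo luminescence following 72 hr exposure at 37C, with bortezomib titrated as control.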
# [9] = MCF7 Cancer Cell Toxicity qHTS against the NCATS CANVASS Library (AID 1347369); settings: activity change, negative = cytotoxicity: at 46 µM (top of the series); also: potency is read from the fitted curve at half-maximal effect
# Method in brief: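 This 72 hr qHTS scored MCF7 viability by CellTiterGlo luminescence, with 500 cells/well; bortezomib titration ran as control.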
# [10] = qHTS for Hypoxia signaling pathway (HIF-1) antagonists against the NCATS CANVASS Library (AID 1347374); also: potency is read from the fitted curve at half-maximal effect; nearly all actives have a fitted effect of over 60% in size
# Method in brief: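 HRE-bla ME-180 cells in medium with 0.5% dialyzed FBS received compounds (11-point series) plus CoCl2 (60 uM addition stock) for 17 hrs at 37C. Beta-lactamase activity read with CCF4 (405 nm ex, 460/530 nm em); CellTiter-Glo viability measured in same wells.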
# [11] = qHTS for Hypoxia signaling pathway (HIF-1) agonists against the NCATS CANVASS Library (AID 1347375); also: potency is read from the fitted curve at half-maximal effect
# Method in brief: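 ME-180 HRE-bla reporter cells; 2,000/well, 0.5% dialyzed FBS; cpd added after 5 h, 17 h 37C/5% CO2; CCF4-AM 2 h RT; FRET 460/530 nm; CellTiter-Glo viability same wells, 30 min.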
# [12] = qHTS for H2AX Agonists against the NCATS CANVASS Library (AID 1347378)
# Method in brief: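 Signal is the 665/620 nm emission ratio from europium cryptate and d2 antibody pair, rising with S139-phosphorylated H2AX. CHO-K1 cells saw test agents for 3 hr at 37C; detection ran 24 hr at room temperature.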
# [13] = Cytotoxicity qHTS for assessment of Hepg2 cells membrane integrity screened against the NCATS CANVASS Library (AID 1347387); also: potency is read from the fitted curve at half-maximal effect
# Method in brief: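 qHTS, 11-pt conc. series, 0.59 nM - 46 uM final; HepG2 2000 cells/well, overnight attachment; 5 hr compound exposure 37C/5% CO2; CytoTox-ONE, 10 min RT; fluorescence ex560/em590 = LDH from damaged membranes.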
# [14] = Secretion counterscreen for inhibitors of the SERCaMP assay screened against the NCATS CANVASS Library (AID 1347390); settings: SH-SY5Y constitutive GLuc secretion, luminescence, 20 h; series mostly up to 76.6 µM
# Method in brief: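 Natural products are titrated in an 11-point series up to 77 uM onto SH-SY5Y-GLuc STOP cells for 20 h. Secreted reporter activity is measured as coelenterazine-driven luminescence, with Brefeldin A on each plate.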
# [15] = qHTS for activators of dead-cell proteases activity screened against the NCATS CANVASS Library (AID 1347392);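 also: luminescence from protease leaking out of membrane-damaged cells cleaving impermeant substrate; potency is read from the fitted curve at half-maximal effect; rising signal means more cytotoxicity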
# Method in brief: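 Compounds are pin-transferred onto attached HepG2 cells, giving 11 final concentrations. After 5 h at 37C, AAF-aminoluciferin reagent is added and luminescence is recorded at room temperature.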
# [16] = qHTS for inhibitors of Wild type Zika virus screened against the NCATS CANVASS Library (AID 1347396); also: potency is read from the fitted curve at half-maximal effect
# Method in brief: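 Protection against wild-type Zika cytopathic effect is measured in African green monkey Vero 766 cells exposed to an 11-point compound series. Surviving cells are quantified by CellTiter Glo luminescence after 72 h.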
# [17] = U-118MG Cancer Cell Toxicity qHTS against the NCATS CANVASS Library (AID 1347351)
# Method in brief: as §1
# [18] = qHTS for Inflammasome Signaling Inhibitors: IL-1-beta AlphaLISA screen against the NCATS CANVASS Library (AID 1347379);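 also: human THP-1 cells primed with LPS then triggered with ATP; secreted IL-1B measured as AlphaLISA emission at 615 nm; lower signal means less IL-1B release which is the wanted effect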
# Method in brief: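 THP-1 cells pretreated 1 hr with compound (up to 57.5 uM final), then stimulated with LPS (250 ng/mL final) and ATP (1.25 mM final). Secreted IL-1B measured by AlphaLISA after 16 hr; glyburide as positive control.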
# [19] = qHTS for Activators of p53 Stress Response Pathway screened against the NCATS CANVASS Library (AID 1347388)
# Method in brief: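 Beta-lactamase reporter driven by p53 response elements in HCT-116 cells, read as the 460 nm/530 nm emission ratio after CCF4 loading, following 16 h of exposure to an 11-point series. Cell viability was measured in the same wells by CellTiter-Glo luminescence.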
# [20] = UWB1.289 Cancer Cell Toxicity qHTS against the NCATS CANVASS Library (AID 1347347); also: nearly all actives have a fitted effect of over 60% in size
# Method in brief: as §1
# [21] = SDT Cancer Cell Toxicity qHTS against the NCATS CANVASS Library (AID 1347365);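 also: SDT canine glioma cells 500 per well in 1536 well plates; nearly all actives have a fitted effect of over 60% in size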
# Method in brief: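 qHTS, SDT dog glioma line, 500 cells/well; cpds 11 pts; 72 hr, 37C, 5% CO2; CellTiterGlo ATP luminescence.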
# [22] = G06 Cancer Cell Toxicity qHTS against the NCATS CANVASS Library (AID 1347368); also: nearly all actives have a fitted effect of over 60% in size
# Method in brief: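 Dog G06 glioma line, 500 cells/well; cpds pin-transferred, 11-pt; 72 hr, 37C/5% CO2; CellTiterGlo luminescence (ATP) endpoint.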
# [23] = biological target: Nuclear receptor subfamily 1 group I member 3 (Homo sapiens) (UniProt Q14994); experiment: qHTS for Constitutive Androstane Receptor (CAR) Antagonist screened against the NCATS CANVASS Library (AID 1347372);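 also: cells stimulated with 50 nM CITCO agonist so inhibition reflects antagonism; luciferase from CYP2B6 promoter reporter driven by hCAR in HepG2 cells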
# Method in brief: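 HepG2-CYP2B6-hCAR double-stable cells plated, 4hr attach; cpd pin-transferred; CITCO 50 nM final; 24hr 37C/5% CO2; CellTiter-Fluor 1hr (fluorescence), then ONE-Glo luminescence.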
# [24] = qHTS for Antimalaria activity screened against the NCATS CANVASS Library (AID 1347380);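 also: Plasmodium falciparum strain Dd2 asexual parasites grown in red blood cells; nearly all actives have a fitted effect of over 40% in size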
# Method in brief: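 Dd2 strain, infected erythrocytes 2.5% Hct final / 0.3% parasitemia. 11-pt qHTS titration, 72 h, 37C, 5% O2, 5% CO2. Lysis buffer + SYBR Green, 18 h, fluorescence 485/535 nm.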
# [25] = qHTS assay for small molecule disruptors of mitochondrial membrane potential screened against the NCATS CANVASS Library (AID 1347389); also: nearly all actives have a fitted effect of over 60% in size
# Method in brief: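 HepG2, 2,000 cells/well, attached overnight; compound 1 hr, 37C, 5% CO2; Mito-MPS dye 30 min, 37C; fluorescence 535 nm (monomer) and 590 nm (aggregate); decreased 590/535 ratio = depolarization.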
# [26] = Vero-766 cells viability qHTS against the NCATS CANVASS Library: Counterscreen for Zika virus inhibition assay (AID 1347394); settings: Vero 766 viability, CellTiter-Glo luminescence, 72 h; activity change, negative = cytotoxic: at 46.1 µM (top of the series)
# Method in brief: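 Counterscreen for toxicity: Vero 766 cells exposed 72 h to an 11-point compound series, viability by CellTiter-Glo.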
# Tags tell the direction and shape of the fitted curve.
structure (smiles),measurement,setting,value
CCCCCCCCCCCCCCC[C@H](O)C[C@@H](O)C[C@@H](O)C[C@@H](O)C[C@@H](O)C[C@H]1CC=CC(=O)O1,Potency,[1],active: 1.88 µM
same,Potency,[2],active: 3.34 µM
same,Potency,[3],active: 5.26 µM
same,Potency,[4],"inconclusive: 26.4 µM [activator, single point]"
same,Potency,[5],active: 16.6 µM
same,Potency,[6],"inconclusive: 33.2 µM [activator, single point]"
same,Potency,[7],"inconclusive: 33.2 µM [activator, partial curve, poor fit]"
same,Potency,[8],active: 9.35 µM
same,Potency,[9],active: 7.39 µM
same,Potency,[10],"inconclusive: 2.65 µM [inhibitor, full curve]"
same,Potency,[11],"inconclusive: 11.8 µM [activator, partial curve]"
same,Potency,[12],"inconclusive: 54.5 µM [activator, single point]"
same,Potency,[13],"inconclusive: 20.9 µM [rising, partial curve]"
same,Potency,[14],active: 8.6 µM
same,Potency,[15],active: 13.2 µM
same,Potency,[16],"inconclusive: 8.27 µM [inhibitor, full curve]"
CC[C@@H]1C[C@@]2(CC)OC(=O)[C@@]3(CC)OC(=O)[C@@H]1[C@@H]23,Potency,[17],inactive
same,Potency,[2],inactive
same,Potency,[3],inactive
same,Potency,[8],inactive
same,Potency,[18],inactive
same,Potency,[19],inactive
C[C@@]12C[C@@H](C[C@H]3C(=O)O[C@@H](c4ccoc4)[C@H](OC(=O)c4ccccc4)[C@@H]31)OC2=O,Potency,[20],inactive
same,Potency,[1],inactive
same,Potency,[17],inactive
same,Potency,[21],inactive
same,Potency,[22],inactive
same,Potency,[23],inactive
same,Potency,[24],inactive
same,Potency,[25],inactive
same,Potency,[26],"inconclusive: 37.1 µM [cytotoxic, single point]"

# 2 records picked at random from the list so far:
structure (smiles),measurement,setting,value
C[C@@]12C[C@@H](C[C@H]3C(=O)O[C@@H](c4ccoc4)[C@H](OC(=O)c4ccccc4)[C@@H]31)OC2=O,Potency,[21],inactive
CCCCCCCCCCCCCCC[C@H](O)C[C@@H](O)C[C@@H](O)C[C@@H](O)C[C@@H](O)C[C@H]1CC=CC(=O)O1,Potency,[3],active: 5.26 µM
